Assay: HPLC analysis of residual amounts of components on treated produce (Table 9)
Conditions: after treatment per Table 8, flow through wash with 1 liter distilled water for 60 seconds

SMILES | Residual amounts of component (Iceberg Lettuce) [ppm] | Residual amounts of component (Spinach leaf) [ppm] | Residual amounts of component (Spring Mix) [ppm]
CC(O)CO (stereo not drawn) [Propylene Glycol] | 18 | 25 | 13
O=P(O)(O)O [Phosphoric Acid] | 5 | 8 | 9
OCl [Hypochlorous Acid “CL2”] | 0.001 | 0.001 | 0.002
OO [Hydrogen Peroxide] | 0 | 0 | 0

Reference: patent publication US9259006B2, “Antimicrobial compositions and methods of use thereof” (priority 2008, dated 2016)
